From patent US7358040B2, “MRE 11: modulation of cellular proliferation” (Rigel Pharmaceuticals, Incorporated, priority 2001, dated 2008) come the findings set out here.

Chains of the proteins cited; added tags and fusions are not shown.
UniProt P12004: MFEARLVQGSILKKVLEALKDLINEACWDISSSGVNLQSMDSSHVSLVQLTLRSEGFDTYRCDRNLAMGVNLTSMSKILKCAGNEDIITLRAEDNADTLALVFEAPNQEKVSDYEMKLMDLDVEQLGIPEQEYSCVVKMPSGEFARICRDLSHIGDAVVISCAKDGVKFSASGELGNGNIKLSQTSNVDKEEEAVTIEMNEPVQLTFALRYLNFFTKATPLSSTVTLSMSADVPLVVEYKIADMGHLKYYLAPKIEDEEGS
UniProt O60934: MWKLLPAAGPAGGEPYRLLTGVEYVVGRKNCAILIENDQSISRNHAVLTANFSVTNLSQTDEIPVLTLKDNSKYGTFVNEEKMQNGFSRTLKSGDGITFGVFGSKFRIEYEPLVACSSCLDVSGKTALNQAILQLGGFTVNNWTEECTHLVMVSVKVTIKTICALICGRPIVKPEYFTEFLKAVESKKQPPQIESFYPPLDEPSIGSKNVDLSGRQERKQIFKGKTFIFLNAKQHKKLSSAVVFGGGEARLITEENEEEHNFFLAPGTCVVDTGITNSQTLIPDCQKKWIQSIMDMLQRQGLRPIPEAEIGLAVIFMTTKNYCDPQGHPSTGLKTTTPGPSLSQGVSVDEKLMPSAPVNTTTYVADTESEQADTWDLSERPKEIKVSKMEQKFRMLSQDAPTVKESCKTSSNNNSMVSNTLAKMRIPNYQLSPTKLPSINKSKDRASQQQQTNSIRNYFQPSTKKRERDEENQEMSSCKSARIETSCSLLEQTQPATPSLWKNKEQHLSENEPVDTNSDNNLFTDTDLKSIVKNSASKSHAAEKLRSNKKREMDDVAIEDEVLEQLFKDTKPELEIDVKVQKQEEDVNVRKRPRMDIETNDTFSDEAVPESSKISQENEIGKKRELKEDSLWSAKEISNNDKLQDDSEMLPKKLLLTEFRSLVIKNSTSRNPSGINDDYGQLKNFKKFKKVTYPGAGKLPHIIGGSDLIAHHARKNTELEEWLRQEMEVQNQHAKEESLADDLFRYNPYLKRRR

No constants are given. Whether binding was seen depends on the method and setting. Some binding calls cover weakened binding; strength is not graded here.

The target in the assay is PCNA (UniProt P12004). Briefly: yeast two hybrid assay, PCNA as bait.

For NBS1 (from UniProt O60934 1-754), the binding result is recorded as “binds”.
